In PubChem BioAssay AID540335 (Broad Institute, 2011):
The campaign covered roughly 1,300 compounds. About 270 (21%) were called active.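 The calls were made as follows: active = dose-dependent rise or fall in viability, either side of zero, with half-maximal concentration at or below a set limit; inconclusive = flat curve at 30 to 70% viability loss, or poor fit; inactive = flat within 30% either way, or potency beyond limit.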 Some of the results follow. Potency and affinity values are given separately.

Assay: proliferation inhibition in MITF-low A375 cells – cell-based, cherry-pick samples, set 2, counter-screen for MITF modulator project, dose response (AID 540335);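 also: A375 human melanoma cells which do not depend on MITF; 0% = median of neutral control wells and 100% = double that signal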
Details: CellTiter-Glo ATP luminescence, 24 h; at 35 µM (top of the series)

SMILES	activity change, negative = decreased viability
O=C(c1ccc([N+](=O)[O-])s1)N1CCCc2ccccc21	inactive: -9.78%
Cc1cccc(-c2nc(C#N)c(NCc3ccco3)o2)c1	inactive: -1.12%
CCOC(=O)Cn1c(=NC(=O)c2ccc([N+](=O)[O-])s2)sc2ccccc21	inactive: -12.7%
COc1ccc(-c2csc(N(C)C(=O)c3ccco3)n2)cc1	inactive: 0.973%
CCn1nccc1C(=O)Nc1ccc(C)c(C)c1	inactive: -8.74%
O=C(NC1CC1)C1CCN(S(=O)(=O)c2ccc(Cl)c([N+](=O)[O-])c2)CC1	inactive: -0.978%
N#CCSc1nc2ccccc2c2nc3ccccc3n12	inactive: 0.942%
COc1cc(CN2CCC(Cc3ccccc3)CC2)cc(OC)c1OC	inactive: -6.84%
O=C(CNC(=O)c1cccc(F)c1)N/N=C/c1ccc([N+](=O)[O-])s1	inactive: -17.1%
COc1ccc(/C=N/Nc2cc(C)nc(-n3nc(C)cc3C)n2)c(OC)c1	inactive: -25.2%
Cc1ccc(C(=O)c2cccc(N)c2)cc1C	inactive: 11.7%
Nc1ccc(Oc2cccc(Oc3ccc(N)cc3)c2)cc1	inactive: 5.47%
CC(=O)SC(C[N+](=O)[O-])c1cn(C(C)=O)c2ccccc12 (stereo unspecified)	inactive: 22.6%
COc1ccc(NS(=O)(=O)c2cc(NC(=O)CNC(=O)c3cccc(OC)c3)ccc2C)cc1	inactive: 12.3%
O=C(COC(=O)CCN1C(=O)/C(=C\C=C\c2ccccc2)SC1=S)Nc1cc(F)ccc1F	inactive: 0.586%
Cc1cccc2sc(N(CCCN(C)C)C(=O)c3nc4ccccc4s3)nc12	inactive: -16.6%
O=C(Nc1ccc(OC(F)(F)F)cc1)c1[nH]ncc1[N+](=O)[O-]	inactive: -1.08%
COc1cc2c(cc1OC)C(SC)=NC1(CCCC1)C2	inactive: -6.14%
C/C(=N\NC(=O)Cc1ccc(Cl)cc1)c1ccccn1	inactive: -24%
CCCCC(=O)N/C(N)=N/c1nc2ccccc2o1	inactive: -7.02%
Cc1ccccc1OCC(=O)N/N=C/c1ccc([N+](=O)[O-])o1	inactive: -16.2%
O=C(CCl)N1c2ccccc2SCC1c1ccccc1 (stereo unspecified)	inactive: -37%
CCC[n+]1c(C)sc2c3c(ccc21)CCCC3	inactive: -27.6%
CCN1CCc2c(sc(NC(=O)c3ccc(S(=O)(=O)N4CCCC4)cc3)c2C(=O)NC)C1	inactive: -9.91%
CC1CN(C(=O)CCC(=O)NCCCN2CCC(Cc3ccccc3)CC2)c2cc(Cl)ccc2O1 (stereo unspecified)	inactive: -37.2%
Cn1cccc1-c1cc(C(=O)N/N=C/c2cc(Br)ccc2O)[nH]n1	inactive: -30%

A second format for some results above.
SMILES,"activity change, negative = decreased viability"
Cc1cccc2sc(N(CCCN(C)C)C(=O)c3nc4ccccc4s3)nc12,inactive: -16.6%
O=C(Nc1ccc(OC(F)(F)F)cc1)c1[nH]ncc1[N+](=O)[O-],inactive: -1.08%
